These are yes or no findings as the source states them, for the method shown. Some binding calls cover weakened binding; strength is not graded here.
Biological target: PD-L1 expressed on cells (CHO cells expressing PD-L1; called 293F cells in the title and the result sentence) (human) (UniProt Q9NZQ7)
Assay: flow cytometry on PD-L1-expressing cells, goat anti-human IgG-PE

The chains behind the UniProt entries cited, without tags or fusion partners. Residues count along the entry.
UniProt Q9NZQ7, residues 19-290: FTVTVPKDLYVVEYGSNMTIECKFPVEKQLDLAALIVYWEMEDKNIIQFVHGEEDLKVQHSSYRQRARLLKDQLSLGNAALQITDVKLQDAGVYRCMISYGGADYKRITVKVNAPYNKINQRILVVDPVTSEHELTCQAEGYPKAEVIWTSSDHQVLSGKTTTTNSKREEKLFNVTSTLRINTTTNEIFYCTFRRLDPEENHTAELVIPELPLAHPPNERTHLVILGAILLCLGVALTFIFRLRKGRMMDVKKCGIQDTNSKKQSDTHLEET

B1: JS003 (humanized anti-PD-L1 antibody, clone 30) (antibody, human IgG4 S228P, kappa, V domains shown)
VH: QGQLQESGPSLVKPSQTLSLTCTVSGDSITRGYWNWIRKHPGKGLEYIGYISYTGSTYSNLSLKSRVTISRDTSKNQYYLKLSSVTAADTAVYYCATSTGWLDPVDYWGQGTLVTVSS
VL: DIVMTQSPDSLAVSLGERATINCKASQNVDTSVAWFQQKPGQPPKALIYSASFRYSGVPDRFSGSGSGTDFTLTISSLQAEDVAVYFCQQYYGYPFTFGQGTKLEIKR
- binding: binds

Source: patent publication CN112741804A
